In the supplement of paper PMC6143611:
Several values for one entry are separate records, joined by “and”; a condition that tells them apart may be missing. Equal entries are not always repeated. Structures can show the parent of a compound that is named as a salt. ± gives the uncertainty stated by the source. The list shows a part of the results. Part of the spread comes from offsets between plates or batches.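 Larvae carried a heat-shock-induced fluorescent stripe in rod outer segments, set at 6 dpf; the shedding distance runs from this stripe to the outer segment tip, measured in confocal stacks, about three fish per compound. The controls got 0.2% DMSO vehicle, and the paper flagged compounds with at least a 20% change against the same-week control and p < 0.001 (Dunnett test on mixed-effects models).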

How the values were obtained:
[1] = test system: Danio rerio larva rod photoreceptor outer segment; test: rod outer segment growth distance Dg, difference from same-week DMSO control mean; higher = more outer segment growth; details: 20 µM; treatment time: 4 days (6-10 dpf)
[2] = test system: Danio rerio larva rod photoreceptor outer segment; test: rod outer segment shedding distance Ds, difference from same-week DMSO control mean; higher = less outer segment shedding; details: 20 µM; treatment time: 4 days (6-10 dpf)

SMILES	rod outer segment growth distance Dg [1] [um]	rod outer segment shedding distance Ds [2]
CC(C)NCC(O)COc1ccc(COCCOC(C)C)cc1 (stereo not given) [Bisoprolol fumarate]	0 ± 0.2	-2.05 ± 0.27 um
CCCOc1ccc(C(=O)OCCN(CC)CC)cc1N [Proparacaine HCl]	0.98 ± 0.28	-0.54 ± 0.33 um
CC(C)c1cc(C(C)C)c(CC(=O)NS(=O)(=O)Oc2c(C(C)C)cccc2C(C)C)c(C(C)C)c1 [Avasimibe]	-1.13 ± 0.23	-0.69 ± 0.27 um
Cc1ccccc1C(=O)Nc1ccc(C(=O)N2CCCC(N(C)C)c3ccccc32)cc1 (stereo not given) [Mozavaptan]	-1.15 ± 0.17	-0.11 ± 0.13 um
CN(C)CC/C=C1/c2ccccc2COc2ccc(CC(=O)O)cc21 [Olopatadine HCl]	0.82 ± 0.3	-0.19 ± 0.3 um
CNC(=C[N+](=O)[O-])NCCSCc1ccc(CN(C)C)o1 [Ranitidine]	-0.02 ± 0.21	-0.02 ± 0.14 um
NC(=O)N1c2ccccc2C=Cc2ccccc21 [Carbamazepine]	0.4 ± 0.27	0.07 ± 0.13 um
CCOC(=O)[C@H](CCc1ccccc1)N[C@H]1CCCN2CCC[C@@H](C(=O)O)N2C1=O [Cilazapril Monohydrate]	-0.44 ± 0.22	-0.08 ± 0.26 um
CCOC(=O)c1ncn2c1CN(C)C(=O)c1cc(F)ccc1-2 [Flumazenil]	0.12 ± 0.29	0.47 ± 0.21 um
CCc1nc(N)nc(N)c1-c1ccc(Cl)cc1 [Pyrimethamine]	-0.74 ± 0.27	-1.28 ± 0.31 um
Cc1ccccc1-n1c(Cn2nc(-c3cccc(O)c3)c3c(N)ncnc32)nc2cccc(C)c2c1=O		0.4 ± 0.25 um
NCCCCCNCC12CC3CC(CC(C3)C1)C2 [IEM 1754 dihydrobroMide]	-0.27 ± 0.19	0.1 ± 0.12 um
CC1=C(/C=C/C(C)=C/C=C/C(C)=C\C(=O)O)C(C)(C)CCC1 [Isotretinoin]	-0.21 ± 0.22	-0.28 ± 0.21 um
O=C(Nc1c(Cl)cncc1Cl)c1ccc(OC(F)F)c(OCC2CC2)c1 [Roflumilast]	2.45 ± 0.3	-1.03 ± 0.36 um
O=C(Nc1c[nH]nc1-c1nc2ccc(CN3CCOCC3)cc2[nH]1)NC1CC1	-0.57 ± 0.18	-0.72 ± 0.2 um
O=C(O)C1=C[C@@H](O)[C@@H](O)[C@H](O)C1 [Shikimic Acid]	0.37 ± 0.24	0.32 ± 0.28 um
C[C@H](Cn1cnc2c(N)ncnc21)OCP(=O)(O)O [Tenofovir]	1.21 ± 0.19	0.48 ± 0.22 um

As a short view, 8 of the compounds above.
SMILES	rod outer segment growth distance Dg [1] [um]	rod outer segment shedding distance Ds [2]
CCOC(=O)[C@H](CCc1ccccc1)N[C@H]1CCCN2CCC[C@@H](C(=O)O)N2C1=O [Cilazapril Monohydrate]	-0.44 ± 0.22	-0.08 ± 0.26 um
CCOC(=O)c1ncn2c1CN(C)C(=O)c1cc(F)ccc1-2 [Flumazenil]	0.12 ± 0.29	0.47 ± 0.21 um
CCc1nc(N)nc(N)c1-c1ccc(Cl)cc1 [Pyrimethamine]	-0.74 ± 0.27	-1.28 ± 0.31 um
Cc1ccccc1-n1c(Cn2nc(-c3cccc(O)c3)c3c(N)ncnc32)nc2cccc(C)c2c1=O		0.4 ± 0.25 um
NCCCCCNCC12CC3CC(CC(C3)C1)C2 [IEM 1754 dihydrobroMide]	-0.27 ± 0.19	0.1 ± 0.12 um
CC1=C(/C=C/C(C)=C/C=C/C(C)=C\C(=O)O)C(C)(C)CCC1 [Isotretinoin]	-0.21 ± 0.22	-0.28 ± 0.21 um
O=C(Nc1c(Cl)cncc1Cl)c1ccc(OC(F)F)c(OCC2CC2)c1 [Roflumilast]	2.45 ± 0.3	-1.03 ± 0.36 um
O=C(Nc1c[nH]nc1-c1nc2ccc(CN3CCOCC3)cc2[nH]1)NC1CC1	-0.57 ± 0.18	-0.72 ± 0.2 um

(more compounds)

SMILES	rod outer segment growth distance Dg [1] [um]	rod outer segment shedding distance Ds [2]
OC(Cn1cncn1)(Cn1cncn1)c1ccc(F)cc1F [Fluconazole]	1.09 ± 0.19	-0.34 ± 0.19 um
CN[C@@H]1[C@H](O[C@H]2[C@H](O[C@H]3[C@H](O)[C@@H](O)[C@H](N=C(N)N)[C@@H](O)[C@@H]3N=C(N)N)O[C@@H](C)[C@]2(O)C=O)O[C@@H](CO)[C@H](O)[C@H]1O [Streptomycin sulfate]	-0.03 ± 0.27	0.07 ± 0.14 um
C[C@@H](O)[C@H]1C(=O)N2C(C(=O)O)=C(S[C@@H]3CN[C@H](C(=O)N(C)C)C3)[C@H](C)[C@H]12 [Meropenem]	0.49 ± 0.19	-0.78 ± 0.24 um
COC(=O)[C@H](CCCN=C(N)N)NS(=O)(=O)c1ccc(C)cc1		-0.8 ± 0.34 um
CCOc1nc2cccc(C(=O)O)c2n1Cc1ccc(-c2ccccc2-c2noc(=O)[nH]2)cc1 [Azilsartan]	1.7 ± 0.15	-0.19 ± 0.13 um
C[C@@H]1CCN(C(=O)CC#N)C[C@@H]1N(C)c1ncnc2[nH]ccc12		0.24 um and 0.23 um
O=c1ncccn1[C@@H]1O[C@H](CO)[C@@H](O)[C@H]1O [Zebularine]	-0.33 ± 0.21	0.3 ± 0.29 um
CC(=O)Nc1ccccc1 [Acetanilide]	-0.69 ± 0.2	-0.39 ± 0.19 um
Cc1ccc(NC(=O)c2cccc(N(C)C)c2)cc1NC(=O)c1ccc(O)cc1	-0.7 ± 0.15	-0.48 ± 0.11 um
C[C@]1(c2nc3c(C(N)=O)cccc3[nH]2)CCCN1 [Veliparib (ABT-888)]	-0.15 ± 0.23	-0.8 ± 0.27 um
Nc1cccc2c1C(=O)N(C1CCC(=O)NC1=O)C2=O (stereo not given) [Pomalidomide]	-0.39 ± 0.16	-0.56 ± 0.18 um
Cc1ccc(=O)n(-c2ccccc2)c1 [Pirfenidone]	-1.37 ± 0.15	-0.11 ± 0.12 um
S=C=Nc1cccc(NC(=S)NCCCCNC(=S)Nc2cccc(N=C=S)c2)c1	0.2 ± 0.16	-0.06 ± 0.12 um
C[C@]12C=CC(=O)C=C1CC[C@@H]1[C@@H]2C(=O)C[C@@]2(C)[C@H]1CC[C@]2(O)C(=O)CO [Prednisone]	0.04 ± 0.2	-0.19 ± 0.15 um
Cc1cccc(-c2nn3c(c2-c2ccnc4ccc(C(N)=O)cc24)CCC3)n1	-0.26 ± 0.24	-0.13 ± 0.28 um
C[C@H](O)[C@H](O)[C@@H](O)[C@@H](O)C=O [L-(+)-Rhamnose Monohydrate]	0.64 ± 0.31	0.07 ± 0.29 um
NS(=O)(=O)C#Cc1ccccc1 [Pifithrin-μ]	-0.06 ± 0.23	-0.7 ± 0.17 um
